Data on 22 compounds can be found in the supplement of paper PMC4604168 (melanoma cell lines).

SMILES strings stand for the structures. The list shows a part of the results. Single values are uncertain, as repeats are few or missing.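 Imaging used 1,536-well plates; nuclei positive for cleaved PARP by antibody were divided by total DNA-stained nuclei to yield the apoptosis fraction. Doses for screening kept most cells viable, and cell lines differ markedly in resting and induced cleaved-PARP levels.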

This assay has as its system SkMel30. The experiment in a line: cleaved PARP positive nuclei fraction relative to DMSO control; melanoma cells; higher = more apoptosis. The settings on record: library dose: low library concentration; 72 h.
For the compound `O=c1[nH]nc(Sc2ncc([N+](=O)[O-])s2)n1-c1ccc2c(c1)OCCO2` + C=C(c1ccc(C(=O)O)cc1)c1cc2c(cc1C)C(C)(C)CCC2(C)C [Bexarotene] (first compound 0.2 µM, partner dose 2 µM), the “cleaved PARP positive nuclei fraction” value is 74.8%. In the case of `CC[C@]1(O)C[C@H]2CN(CCc3c([nH]c4ccccc34)[C@@](C(=O)OC)(c3cc4c(cc3OC)N(C=O)[C@H]3[C@@](O)(C(=O)OC)[C@H](OC(C)=O)[C@]5(CC)C=CCN6CC[C@]43[C@@H]65)C2)C1` [vincristine] + COc1ccc(C2=N[C@@H](c3ccc(Cl)cc3)[C@@H](c3ccc(Cl)cc3)N2C(=O)N2CCNC(=O)C2)c(OC(C)C)c1 [Nutlin-3] (first compound 0.0001 µM, partner dose 0.1 µM) it was 143%.

In the case of `COc1cc([C@@H]2c3cc4c(cc3[C@@H](O[C@@H]3O[C@@H]5CO[C@@H](C)O[C@H]5[C@H](O)[C@H]3O)[C@H]3COC(=O)[C@H]23)OCO4)cc(OC)c1O` [etoposide] + C[C@@H](Oc1cc(-c2cnn(C3CCNCC3)c2)cnc1N)c1c(Cl)ccc(F)c1Cl [Crizotinib] (first compound 0.02 µM, partner dose 0.2 µM), the “cleaved PARP positive nuclei fraction” value was found to be 276%. As to `CC[C@]1(O)C[C@H]2CN(CCc3c([nH]c4ccccc34)[C@@](C(=O)OC)(c3cc4c(cc3OC)N(C=O)[C@H]3[C@@](O)(C(=O)OC)[C@H](OC(C)=O)[C@]5(CC)C=CCN6CC[C@]43[C@@H]65)C2)C1` [vincristine] + OCc1c[nH]c2ccccc12 [Indole-3-carbinol] (first compound 0.0001 µM, partner dose 0.8 µM), the “cleaved PARP positive nuclei fraction” value came out at 277%.

Take `O=c1[nH]nc(Sc2ncc([N+](=O)[O-])s2)n1-c1ccc2c(c1)OCCO2` + Cn1cnc2c(F)c(Nc3ccc(Br)cc3Cl)c(C(=O)NOCCO)cc21 [selumetinib] (first compound 0.2 µM, partner dose 0.015 µM): the “cleaved PARP positive nuclei fraction” value worked out at 84.1%. For the compound `CC[C@]1(O)C[C@H]2CN(CCc3c([nH]c4ccccc34)[C@@](C(=O)OC)(c3cc4c(cc3OC)N(C=O)[C@H]3[C@@](O)(C(=O)OC)[C@H](OC(C)=O)[C@]5(CC)C=CCN6CC[C@]43[C@@H]65)C2)C1` [vincristine] + CS(=O)(=O)c1ccc(C(=O)Nc2ccc(Cl)c(-c3ccccn3)c2)c(Cl)c1 [vismodegib] (first compound 0.0001 µM, partner dose 1 µM), the “cleaved PARP positive nuclei fraction” value was determined as 93.9%.

`O=c1[nH]nc(Sc2ncc([N+](=O)[O-])s2)n1-c1ccc2c(c1)OCCO2` + Nc1ccn([C@@H]2O[C@H](CO)[C@@H](O)C2(F)F)c(=O)n1 [gemcitabine] (first compound 0.2 µM, partner dose 0.0004 µM): the “cleaved PARP positive nuclei fraction” value is 192%. In the case of `CCCCCCCCCCCCCCCCCCOP(=O)([O-])OC1CC[N+](C)(C)CC1` [Perifosine] + Cc1cc(Nc2cc(N3CCN(C)CC3)nc(/C=C/c3ccccc3)n2)n[nH]1 [ENMD2076] (first compound 0.4 µM, partner dose 0.04 µM) it was 258%. In the case of `O=C(Nc1cc(C(F)(F)F)cc(C(F)(F)F)c1)c1cc(Cl)ccc1O` + Cn1cnc2c(F)c(Nc3ccc(Br)cc3Cl)c(C(=O)NOCCO)cc21 [selumetinib] (first compound 0.016 µM, partner dose 0.015 µM) it was 127%. For `Cc1ccc(Nc2nccc(N(C)c3ccc4c(C)n(C)nc4c3)n2)cc1S(N)(=O)=O` [Pazopanib] + CC(=O)c1c(C)c2cnc(Nc3ccc(N4CCNCC4)cn3)nc2n(C2CCCC2)c1=O [palbociclib] (first compound 0.4 µM, partner dose 0.04 µM) the value was 78.8%; for `CC[C@]1(O)C[C@H]2CN(CCc3c([nH]c4ccccc34)[C@@](C(=O)OC)(c3cc4c(cc3OC)N(C=O)[C@H]3[C@@](O)(C(=O)OC)[C@H](OC(C)=O)[C@]5(CC)C=CCN6CC[C@]43[C@@H]65)C2)C1` [vincristine] + C#Cc1cccc(Nc2ncnc3cc(OCCOC)c(OCCOC)cc23)c1 [erlotinib] (first compound 0.0001 µM, partner dose 0.8 µM), 310%; for `N#CC[C@H](C1CCCC1)n1cc(-c2ncnc3[nH]ccc23)cn1` [ruxolitinib] + O=C(O)[C@@H]1[O][Sb](=[O])([O][Sb]2(=[O])[O][C@H]([C@H](O)CO)[C@H](O)[C@H](C(=O)O)[O]2)[O][C@H]([C@H](O)CO)[C@@H]1O [stibogluconate] (first compound 1 µM, partner dose 2 µM), 74.7%. As to `Cc1cn(-c2cc(NC(=O)c3ccc(C)c(Nc4nccc(-c5cccnc5)n4)c3)cc(C(F)(F)F)c2)cn1` [nilotinib] + CC(=O)O[C@@]12CO[C@@H]1C[C@H](O)[C@@]1(C)C(=O)[C@H](O)C3=C(C)[C@@H](OC(=O)[C@H](O)[C@@H](NC(=O)OC(C)(C)C)c4ccccc4)C[C@@](O)([C@@H](OC(=O)c4ccccc4)[C@H]21)C3(C)C [Docetaxel] (first compound 0.2 µM, partner dose 0.0001 µM), the “cleaved PARP positive nuclei fraction” value is 129%. In the case of `COc1cc([C@@H]2c3cc4c(cc3[C@@H](O[C@@H]3O[C@@H]5CO[C@@H](C)O[C@H]5[C@H](O)[C@H]3O)[C@H]3COC(=O)[C@H]23)OCO4)cc(OC)c1O` [etoposide] + Cc1nc(Nc2ncc(C(=O)Nc3c(C)cccc3Cl)s2)cc(N2CCN(CCO)CC2)n1 [dasatanib] (first compound 0.02 µM, partner dose 0.004 µM) it was 123%; in that of `CC[C@]1(O)C[C@H]2CN(CCc3c([nH]c4ccccc34)[C@@](C(=O)OC)(c3cc4c(cc3OC)N(C=O)[C@H]3[C@@](O)(C(=O)OC)[C@H](OC(C)=O)[C@]5(CC)C=CCN6CC[C@]43[C@@H]65)C2)C1` [vincristine] + Cc1ccc(Nc2nccc(N(C)c3ccc4c(C)n(C)nc4c3)n2)cc1S(N)(=O)=O [Pazopanib] (first compound 0.0001 µM, partner dose 0.4 µM), 244%. Consider `O=C(/C=C/c1cccnc1)NCCCCC1CCN(C(=O)c2ccccc2)CC1` + Cn1c(=O)n(-c2ccc(C(C)(C)C#N)cc2)c2c3cc(-c4cnc5ccccc5c4)ccc3ncc21 [NVP-BEZ235] (first compound 0.01 µM, partner dose 0.004 µM), for which the “cleaved PARP positive nuclei fraction” value was determined as 219%. For `O=C(/C=C/c1cccnc1)NCCCCC1CCN(C(=O)c2ccccc2)CC1` + Cc1cn(-c2cc(NC(=O)c3ccc(C)c(Nc4nccc(-c5cccnc5)n4)c3)cc(C(F)(F)F)c2)cn1 [nilotinib] (first compound 0.01 µM, partner dose 0.2 µM) the value was 105%; for `O=C(/C=C/c1cccnc1)NCCCCC1CCN(C(=O)c2ccccc2)CC1` + COCC[n+]1c2c(n(Cc3cnccn3)c1C)C(=O)c1ccccc1C2=O [YM155] (first compound 0.01 µM, partner dose 0.0004 µM), 97.2%; for `COc1cc([C@@H]2c3cc4c(cc3[C@@H](O[C@@H]3O[C@@H]5CO[C@@H](C)O[C@H]5[C@H](O)[C@H]3O)[C@H]3COC(=O)[C@H]23)OCO4)cc(OC)c1O` [etoposide] + O=c1[nH]nc(Sc2ncc([N+](=O)[O-])s2)n1-c1ccc2c(c1)OCCO2 [BI78D3] (first compound 0.02 µM, partner dose 0.2 µM), 67.8%. In the case of `Cc1cc(Nc2cc(N3CCN(C)CC3)nc(Sc3ccc(NC(=O)C4CC4)cc3)n2)n[nH]1` [Tozasertib] + C[C@@H](Oc1cc(-c2cnn(C3CCNCC3)c2)cnc1N)c1c(Cl)ccc(F)c1Cl [Crizotinib] (first compound 0.006 µM, partner dose 0.2 µM) it was 39.3%; in that of `O=C(Nc1cc(C(F)(F)F)cc(C(F)(F)F)c1)c1cc(Cl)ccc1O` + COCC[n+]1c2c(n(Cc3cnccn3)c1C)C(=O)c1ccccc1C2=O [YM155] (first compound 0.016 µM, partner dose 0.0004 µM), 69.9%; in that of `O=c1[nH]nc(Sc2ncc([N+](=O)[O-])s2)n1-c1ccc2c(c1)OCCO2` + CCCCCCCCc1ccc(CCC(N)(CO)CO)cc1 [fingolimod] (first compound 0.2 µM, partner dose 2 µM), 81.1%.
